# PMC5996148
# Some of the results follow. For some of these results: The source does not settle which construct or isoform was used.
# Columns and labels:
# Experiment in all cases: protein microarray (ProtoArray v5.0), streptavidin-Alexa Fluor 647
# Conditions in all cases: 3'-biotin; 20 mM Tris (pH 7.5), 5 mM MgCl2, 100 mM KCl, 0.1% Tween-20, A/T-rich and random oligonucleotide blockers; temperature not stated; high values mean tight binding
# ARHGDIA (human) = system: ARHGDIA (human)
# ARHGDIB (human) = system: ARHGDIB (human)
# ARHGEF16 (human) = system: ARHGEF16 (human)
# ARID3B (human) = system: ARID3B (human)
# ARL1 (human) = system: ARL1 (human)
# ARL15 = molecular target: T1, ARL15 (UniProt Q9NXU5)
# T1 sequence: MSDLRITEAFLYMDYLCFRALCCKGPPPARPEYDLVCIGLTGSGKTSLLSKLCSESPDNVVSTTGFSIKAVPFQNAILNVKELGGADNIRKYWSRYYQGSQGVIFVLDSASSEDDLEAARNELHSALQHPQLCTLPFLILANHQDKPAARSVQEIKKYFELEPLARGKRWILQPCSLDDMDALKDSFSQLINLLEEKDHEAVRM
# ARL2 (human) = system: ARL2 (human)
# ARL3 (human) = system: ARL3 (human)
# ARL5A (human) = system: ARL5A (human)
# ARL5B (human) = system: ARL5B (human)
sequence,measurement,setting,value
GGGAGGCTGAGGCAGG [G4-1 biotinylated (PQS2)],binding signal,ARHGDIA (human),-0.331 z-score
same,binding signal,ARHGDIB (human),-0.335 z-score
same,binding signal,ARHGEF16 (human),-0.308 z-score
same,binding signal,ARID3B (human),-0.352 z-score
same,binding signal,ARL1 (human),-0.331 z-score
same,binding signal,ARL15,-0.26 z-score
same,binding signal,ARL2 (human),-0.303 z-score
same,binding signal,ARL3 (human),-0.335 z-score
same,binding signal,ARL5A (human),-0.357 z-score
same,binding signal,ARL5B (human),-0.327 z-score

# Some of the entries so far, bar-delimited.
sequence | measurement | setting | value
GGGAGGCTGAGGCAGG [G4-1 biotinylated (PQS2)] | binding signal | ARL1 (human) | -0.331 z-score
same | binding signal | ARL5A (human) | -0.357 z-score
